Reference: article PMC9182567
No constants are given. Whether binding was seen depends on the method and setting. In cells and extracts the contact can be indirect. Binding calls can cover weak binding; strength is not graded here.

Biological target: GFP-SteD (wild type) (Salmonella enterica serovar Typhimurium (14028s))
Assay: co-IP; Mel Juso cells expressing GFP-tagged effectors, crosslinked with 2 mM DSP for 2 h at 4°C before lysis (5% glycerol, 0.5% Triton X-100, 1 mM PMSF in PBS); GFP-Trap beads 2 h at 4°C, four washes; immunoblot of endogenous partners (AP1 by its γ subunit)

B1: TMEM127 (protein, UniProt O75204 1-238)
chain: MYAPGGAGLPGGRRRRSPGGSALPKQPERSLASALPGALSITALCTALAEPAWLHIHGGTCSRQELGVSDVLGYVHPDLLKDFCMNPQTVLLLRVIAAFCFLGILCSLSAFLLDVFGPKHPALKITRRYAFAHILTVLQCATVIGFSYWASELILAQQQQHKKYHGSQVYVTFAVSFYLVAGAGGASILATAANLLRHYPTEEEEQALELLSEMEENEPYPAEYEVINQFQPPPAYTP
  binding: binds
